The values that follow come from PMC8129509.

Sequences of proteins named here, by UniProt entry; tags and fusion partners are left off. Residues count along the entry.
UniProt Q9QUK6, residues 26-835: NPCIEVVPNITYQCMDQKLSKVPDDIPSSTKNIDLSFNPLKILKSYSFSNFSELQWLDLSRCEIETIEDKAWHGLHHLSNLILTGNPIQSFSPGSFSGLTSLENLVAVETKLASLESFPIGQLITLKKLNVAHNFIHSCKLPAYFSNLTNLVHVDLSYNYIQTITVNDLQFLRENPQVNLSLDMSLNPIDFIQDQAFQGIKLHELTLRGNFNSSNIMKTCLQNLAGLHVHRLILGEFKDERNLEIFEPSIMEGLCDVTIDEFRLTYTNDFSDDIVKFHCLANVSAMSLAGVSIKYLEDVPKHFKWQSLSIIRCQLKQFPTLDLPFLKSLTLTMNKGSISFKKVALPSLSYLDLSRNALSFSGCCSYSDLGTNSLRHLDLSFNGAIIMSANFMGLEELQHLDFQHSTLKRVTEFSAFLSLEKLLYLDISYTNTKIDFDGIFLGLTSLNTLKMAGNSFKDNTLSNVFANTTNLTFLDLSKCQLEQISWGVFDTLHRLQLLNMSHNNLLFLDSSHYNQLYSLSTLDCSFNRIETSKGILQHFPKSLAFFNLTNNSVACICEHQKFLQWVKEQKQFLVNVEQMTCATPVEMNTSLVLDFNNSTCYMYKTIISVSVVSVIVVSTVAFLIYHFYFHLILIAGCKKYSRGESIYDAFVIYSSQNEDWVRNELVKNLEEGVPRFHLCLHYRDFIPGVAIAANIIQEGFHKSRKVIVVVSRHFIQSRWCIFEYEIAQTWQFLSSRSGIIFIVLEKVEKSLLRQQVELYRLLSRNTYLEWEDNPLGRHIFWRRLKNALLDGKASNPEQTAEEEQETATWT

No constants are given. Whether binding was seen depends on the method and setting. In cells and extracts the contact can be indirect. Some entries that bind do so weakly or less than the wild type. Tags and fused reporters may be left off the sequences shown.

This test addresses T1, Mycobacterium tuberculosis Rv2145c, recombinant His-tagged (Mycobacterium tuberculosis H37Rv) (UniProt P9WMU1).
T1 sequence: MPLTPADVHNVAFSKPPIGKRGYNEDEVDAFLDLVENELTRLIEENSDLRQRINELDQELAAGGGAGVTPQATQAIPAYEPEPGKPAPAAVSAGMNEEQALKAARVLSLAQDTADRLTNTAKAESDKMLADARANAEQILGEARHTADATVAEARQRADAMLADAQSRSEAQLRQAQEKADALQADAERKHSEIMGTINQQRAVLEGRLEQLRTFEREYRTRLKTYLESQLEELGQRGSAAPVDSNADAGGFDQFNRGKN
The test can be described thus: co-IP; only the target purified.

Consider “TLR4 (from UniProt Q9QUK6 26-835) (receptor)”, for which the binding entry is “binds”.
